# Values quoted from earlier work in patent US5354758A, “Benzomorphans useful as NMDA receptor antagonists” (priority 1992, dated 1994).
# Chains of the proteins cited; added tags and fusions are not shown.
# UniProt P33535, whole entry: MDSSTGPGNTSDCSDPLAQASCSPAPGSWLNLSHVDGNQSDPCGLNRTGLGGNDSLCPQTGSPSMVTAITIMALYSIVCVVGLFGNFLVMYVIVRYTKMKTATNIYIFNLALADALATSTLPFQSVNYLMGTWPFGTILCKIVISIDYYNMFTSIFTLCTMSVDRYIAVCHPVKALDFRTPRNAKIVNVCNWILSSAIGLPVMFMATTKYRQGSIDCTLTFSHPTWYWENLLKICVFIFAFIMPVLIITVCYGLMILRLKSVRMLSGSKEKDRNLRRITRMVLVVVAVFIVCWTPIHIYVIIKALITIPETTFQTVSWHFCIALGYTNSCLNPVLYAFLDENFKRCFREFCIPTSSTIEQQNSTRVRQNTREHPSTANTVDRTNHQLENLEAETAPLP
# The structures given here were assigned with low confidence; some may be wrong.
# Target: μ-site of opioid receptor (Rattus norvegicus, UniProt P33535)
# Conditions: shown previously; tested as the radiolabelled form; cited from earlier work
compound,measurement,value
C[C@@H](NC(=O)[C@@H](N)Cc1ccc(O)cc1)C(=O)NCC(=O)N(C)[C@@H](Cc1ccccc1)C(=O)NCCO,high-affinity ligand at the μ site of the opioid receptor,high-affinity
